The target of the assay is recombinant human PD-1-IgG1.Fc fusion protein (human). Description: ELISA; plate coated with PD-L1 at 50 µg/ml, PD1-IgG1.Fc added at 50 µg/ml, detected with HRP goat anti-human IgG.Fc. For orientation: ELISA stands for enzyme-linked immunosorbent assay.

By UniProt entry, the sequences of proteins in these tests, tags left out. Where a name states a change or a piece, a line headed by the entry shows the natural chain unless it says otherwise.
UniProt Q9NZQ7: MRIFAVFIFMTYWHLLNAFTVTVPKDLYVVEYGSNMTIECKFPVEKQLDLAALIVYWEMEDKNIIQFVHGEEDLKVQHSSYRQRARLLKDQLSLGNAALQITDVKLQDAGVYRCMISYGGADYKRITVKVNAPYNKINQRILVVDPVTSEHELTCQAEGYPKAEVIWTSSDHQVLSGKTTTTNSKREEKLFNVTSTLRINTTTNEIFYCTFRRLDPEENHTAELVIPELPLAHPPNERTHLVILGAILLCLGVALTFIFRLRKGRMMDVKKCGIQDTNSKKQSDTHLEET

Results are given in words; binding and its absence hold for the method and conditions named. Some results given as binding are weak or reduced against the parent protein; the word gives no strength.

As for “recombinant human PD-L1 (from UniProt Q9NZQ7 19-238) (ligand)”, the binding entry is given as “binds”.
